In the supplement of paper PMC4604168 (melanoma cell lines):
Some of the results follow. Single values are uncertain, as repeats are few or missing.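 Imaging used 1,536-well plates; nuclei positive for cleaved PARP by antibody were divided by total DNA-stained nuclei to yield the apoptosis fraction. Doses for screening kept most cells viable, and cell lines differ markedly in resting and induced cleaved-PARP levels.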

tested on: CBRC013 (line from a melanoma biopsy); assay: cleaved PARP positive nuclei fraction relative to DMSO control; melanoma cells; higher = more apoptosis; conditions: library dose: low library concentration; 72 h

Row | Compound | cleaved PARP positive nuclei fraction
1 | Cn1nnc2c(C(N)=O)ncn2c1=O [temozolomide] + CCN(CC)CCCCNc1ncc2cc(-c3cc(OC)cc(OC)c3)c(NC(=O)NC(C)(C)C)nc2n1 [PD173074] (first compound 2 µM, partner dose 0.1 µM) | 113%
2 | C[C@]1(c2nc3c(C(N)=O)cccc3[nH]2)CCCN1 [Veliparib] + COc1cc2c(Oc3ccc4[nH]c(C)cc4c3F)ncnc2cc1OCCCN1CCCC1 [cediranib] (first compound 1.4 µM, partner dose 0.4 µM) | 140%
3 | C=CCn1c(=O)c2cnc(Nc3ccc(N4CCN(C)CC4)cc3)nc2n1-c1cccc(C(C)(C)O)n1 + OCCn1cc(-c2cnc3nnn(Cc4ccc5ncccc5c4)c3n2)cn1 [PF04217903] (first compound 0.02 µM, partner dose 1 µM) | 129%

tested on: CBRC014 (line from a melanoma biopsy); assay: as above; conditions: library dose: low library concentration; 72 h

Row | Compound | cleaved PARP positive nuclei fraction
4 | O=C(Nc1cccc(Cl)c1)Nc1ncc(CCNc2ncnc3ccsc23)s1 + O=C(O)c1ccc(-c2c[nH]c3ncc(-c4ccccc4)cc23)cc1C1CCCC1 [GSK650394] (first compound 0.0008 µM, partner dose 0.16 µM) | 98.7%
5 | O=C(Nc1cccc(Cl)c1)Nc1ncc(CCNc2ncnc3ccsc23)s1 + CN(NC(=O)CC(=O)NN(C)C(=S)c1ccccc1)C(=S)c1ccccc1 [STA4783] (first compound 0.0008 µM, partner dose 0.006 µM) | 367%
6 | Cn1nnc2c(C(N)=O)ncn2c1=O [temozolomide] + Cc1cc([N+](=O)[O-])ccc1NS(=O)(=O)c1cc(Cl)ccc1Cl [FH535] (first compound 2 µM, partner dose 1 µM) | 148%
7 | Cc1nc(Nc2ncc(C(=O)Nc3c(C)cccc3Cl)s2)cc(N2CCN(CCO)CC2)n1 [dasatanib] + C[C@]1(c2nc3c(C(N)=O)cccc3[nH]2)CCCN1 [Veliparib] (first compound 0.004 µM, partner dose 1.4 µM) | 111%
8 | NC(=O)Nc1cc(-c2cccc(F)c2)sc1C(=O)N[C@H]1CCCNC1 + O=C(Nc1cccc(Cl)c1)Nc1ncc(CCNc2ncnc3ccsc23)s1 [SNS314] (first compound 0.02 µM, partner dose 0.0008 µM) | 89.6%
9 | CC1(C)NC(=O)N(c2ccc([N+](=O)[O-])c(C(F)(F)F)c2)C1=O [nilutamide] + CO[C@@H]1[C@H](N(C)C(=O)c2ccccc2)C[C@H]2O[C@]1(C)n1c3ccccc3c3c4c(c5c6ccccc6n2c5c31)C(=O)NC4 [Midostaurin] (first compound 1 µM, partner dose 0.08 µM) | 79%
10 | Cc1nc(Nc2ncc(C(=O)Nc3c(C)cccc3Cl)s2)cc(N2CCN(CCO)CC2)n1 [dasatanib] + Cn1cc(/C=C2\C(=O)Nc3cccnc32)c2ccccc21 [GW441756] (first compound 0.004 µM, partner dose 0.4 µM) | 105%
11 | OCc1c[nH]c2ccccc12 [Indole-3-carbinol] + Clc1ccc(Nc2nnc(Cc3ccncc3)c3ccccc23)cc1 [vatalanib] (first compound 0.8 µM, partner dose 2 µM) | 101%
12 | C=CCNC1=C2C[C@@H](C)C[C@H](OC)[C@H](O)[C@@H](C)/C=C(\C)[C@H](OC(N)=O)[C@@H](OC)/C=C\C=C(/C)C(=O)NC(=CC1=O)C2=O [Tanespimycin] + Cn1nnc2c(C(N)=O)ncn2c1=O [temozolomide] (first compound 0.002 µM, partner dose 2 µM) | 124%
13 | Cc1cc(N2CCOCC2)cc2[nH]c(-c3c(NC[C@@H](O)c4cccc(Cl)c4)cc[nH]c3=O)nc12 + Oc1nc(-c2ccc(C(F)(F)F)cc2)nc2c1CSCC2 [XAV939] (first compound 0.2 µM, partner dose 2 µM) | 98.1%
14 | Clc1ccc(Nc2nnc(Cc3ccncc3)c3ccccc23)cc1 [vatalanib] + COc1cc(Nc2ncc(F)c(Nc3ccc4c(n3)NC(=O)C(C)(C)O4)n2)cc(OC)c1OC [Tamatinib] (first compound 2 µM, partner dose 0.4 µM) | 121%
15 | Cc1cc(N2CCOCC2)cc2[nH]c(-c3c(NC[C@@H](O)c4cccc(Cl)c4)cc[nH]c3=O)nc12 + Oc1cc(-c2nc(-c3ccccc3)[nH]c2-c2ccncc2)ccc1Cl [L779450] (first compound 0.2 µM, partner dose 0.2 µM) | 107%
16 | C=CCn1c(=O)c2cnc(Nc3ccc(N4CCN(C)CC4)cc3)nc2n1-c1cccc(C(C)(C)O)n1 + Cc1cc([N+](=O)[O-])ccc1NS(=O)(=O)c1cc(Cl)ccc1Cl [FH535] (first compound 0.02 µM, partner dose 1 µM) | 122%
17 | Cc1ccc(NC(=O)c2cccc(N(C)C)c2)cc1NC(=O)c1ccc(O)cc1 + CC(C)(C)c1cnc(CSc2cnc(NC(=O)C3CCNCC3)s2)o1 [SNS-032] (first compound 2 µM, partner dose 0.01 µM) | 86.9%
18 | Cc1nc(Nc2ncc(C(=O)Nc3c(C)cccc3Cl)s2)cc(N2CCN(CCO)CC2)n1 [dasatanib] + NC(=O)Nc1cc(-c2cccc(F)c2)sc1C(=O)N[C@H]1CCCNC1 [AZD7762] (first compound 0.004 µM, partner dose 0.02 µM) | 94.6%
19 | C#Cc1cccc(Nc2ncnc3cc(OCCOC)c(OCCOC)cc23)c1 [erlotinib] + COc1ccc(Cl)c(Nc2nc3ccccc3nc2NS(=O)(=O)c2cccc(NC(=O)C(C)(C)N)c2)c1 [XL147] (first compound 0.8 µM, partner dose 0.8 µM) | 98.5%
20 | CO[C@@H]1[C@H](N(C)C(=O)c2ccccc2)C[C@H]2O[C@]1(C)n1c3ccccc3c3c4c(c5c6ccccc6n2c5c31)C(=O)NC4 [Midostaurin] + c1cc(-c2cnn3cc(-c4ccc(OCCN5CCCCC5)cc4)cnc23)ccn1 [Dorsomorphin] (first compound 0.08 µM, partner dose 0.4 µM) | 94.5%
21 | NC(=O)Nc1cc(-c2cccc(F)c2)sc1C(=O)N[C@H]1CCCNC1 + N#Cc1c(O)c2c(-c3ccc(-c4ccccc4O)cc3)csc2[nH]c1=O [A769662] (first compound 0.02 µM, partner dose 2 µM) | 102%
22 | C[C@]1(c2nc3c(C(N)=O)cccc3[nH]2)CCCN1 [Veliparib] + Cc1cc(N2CCOCC2)cc2[nH]c(-c3c(NC[C@@H](O)c4cccc(Cl)c4)cc[nH]c3=O)nc12 [BMS536924] (first compound 1.4 µM, partner dose 0.2 µM) | 98.5%
23 | OCCn1cc(-c2cnc3nnn(Cc4ccc5ncccc5c4)c3n2)cn1 + CCN(CC)CCCCNc1ncc2cc(-c3cc(OC)cc(OC)c3)c(NC(=O)NC(C)(C)C)nc2n1 [PD173074] (first compound 1 µM, partner dose 0.1 µM) | 95.8%
24 | CC(=O)c1c(C)c2cnc(Nc3ccc(N4CCNCC4)cn3)nc2n(C2CCCC2)c1=O [palbociclib] + O=S(=O)(c1ccccc1)N(CC(F)(F)F)c1ccc(C(O)(C(F)(F)F)C(F)(F)F)cc1 [T0901317] (first compound 0.04 µM, partner dose 1.4 µM) | 125%
25 | Cc1nc(Nc2ncc(C(=O)Nc3c(C)cccc3Cl)s2)cc(N2CCN(CCO)CC2)n1 [dasatanib] + CN(C)S(=O)(=O)c1ccc2c(c1)/C(=C/c1cc3c([nH]1)CCCC3)C(=O)N2 [SU6656] (first compound 0.004 µM, partner dose 0.4 µM) | 121%
26 | CC(=O)c1c(C)c2cnc(Nc3ccc(N4CCNCC4)cn3)nc2n(C2CCCC2)c1=O [palbociclib] + COc1cc(Nc2ncc(F)c(Nc3ccc4c(n3)NC(=O)C(C)(C)O4)n2)cc(OC)c1OC [Tamatinib] (first compound 0.04 µM, partner dose 0.4 µM) | 110%
27 | CO[C@@H]1[C@H](N(C)C(=O)c2ccccc2)C[C@H]2O[C@]1(C)n1c3ccccc3c3c4c(c5c6ccccc6n2c5c31)C(=O)NC4 [Midostaurin] + CN(NC(=O)CC(=O)NN(C)C(=S)c1ccccc1)C(=S)c1ccccc1 [STA4783] (first compound 0.08 µM, partner dose 0.006 µM) | 555%
28 | Cc1cc(N2CCOCC2)cc2[nH]c(-c3c(NC[C@@H](O)c4cccc(Cl)c4)cc[nH]c3=O)nc12 + CC(C)CCN1c2nc(Nc3cc(F)c(O)c(F)c3)ncc2N(C)C(=O)C1C [BID1870] (first compound 0.2 µM, partner dose 0.2 µM) | 112%
29 | Nc1cccc2c1CN(C1CCC(=O)NC1=O)C2=O (stereo unspecified) [lenalidomide] + COc1cc2c(Oc3ccc4[nH]c(C)cc4c3F)ncnc2cc1OCCCN1CCCC1 [cediranib] (first compound 1 µM, partner dose 0.4 µM) | 86.3%
30 | CC(C)(C)c1cnc(CSc2cnc(NC(=O)C3CCNCC3)s2)o1 + O=S(=O)(c1ccccc1)N(CC(F)(F)F)c1ccc(C(O)(C(F)(F)F)C(F)(F)F)cc1 [T0901317] (first compound 0.01 µM, partner dose 1.4 µM) | 122%
31 | OCc1c[nH]c2ccccc12 [Indole-3-carbinol] + NCC(=O)Nc1ccc(-n2nc(C(F)(F)F)cc2-c2ccc3c(ccc4ccccc43)c2)cc1 [OSU03012] (first compound 0.8 µM, partner dose 1 µM) | 90.5%

Part of the list above, comma-delimited.
Row,Compound,cleaved PARP positive nuclei fraction
11,"OCc1c[nH]c2ccccc12 [Indole-3-carbinol] + Clc1ccc(Nc2nnc(Cc3ccncc3)c3ccccc23)cc1 [vatalanib] (first compound 0.8 µM, partner dose 2 µM)",101%
12,"C=CCNC1=C2C[C@@H](C)C[C@H](OC)[C@H](O)[C@@H](C)/C=C(\C)[C@H](OC(N)=O)[C@@H](OC)/C=C\C=C(/C)C(=O)NC(=CC1=O)C2=O [Tanespimycin] + Cn1nnc2c(C(N)=O)ncn2c1=O [temozolomide] (first compound 0.002 µM, partner dose 2 µM)",124%
